For test [1], the target named is T1, mouse Ptch1 (pcDNA3-mPtch1) (mouse), Q61115.
T1 chain: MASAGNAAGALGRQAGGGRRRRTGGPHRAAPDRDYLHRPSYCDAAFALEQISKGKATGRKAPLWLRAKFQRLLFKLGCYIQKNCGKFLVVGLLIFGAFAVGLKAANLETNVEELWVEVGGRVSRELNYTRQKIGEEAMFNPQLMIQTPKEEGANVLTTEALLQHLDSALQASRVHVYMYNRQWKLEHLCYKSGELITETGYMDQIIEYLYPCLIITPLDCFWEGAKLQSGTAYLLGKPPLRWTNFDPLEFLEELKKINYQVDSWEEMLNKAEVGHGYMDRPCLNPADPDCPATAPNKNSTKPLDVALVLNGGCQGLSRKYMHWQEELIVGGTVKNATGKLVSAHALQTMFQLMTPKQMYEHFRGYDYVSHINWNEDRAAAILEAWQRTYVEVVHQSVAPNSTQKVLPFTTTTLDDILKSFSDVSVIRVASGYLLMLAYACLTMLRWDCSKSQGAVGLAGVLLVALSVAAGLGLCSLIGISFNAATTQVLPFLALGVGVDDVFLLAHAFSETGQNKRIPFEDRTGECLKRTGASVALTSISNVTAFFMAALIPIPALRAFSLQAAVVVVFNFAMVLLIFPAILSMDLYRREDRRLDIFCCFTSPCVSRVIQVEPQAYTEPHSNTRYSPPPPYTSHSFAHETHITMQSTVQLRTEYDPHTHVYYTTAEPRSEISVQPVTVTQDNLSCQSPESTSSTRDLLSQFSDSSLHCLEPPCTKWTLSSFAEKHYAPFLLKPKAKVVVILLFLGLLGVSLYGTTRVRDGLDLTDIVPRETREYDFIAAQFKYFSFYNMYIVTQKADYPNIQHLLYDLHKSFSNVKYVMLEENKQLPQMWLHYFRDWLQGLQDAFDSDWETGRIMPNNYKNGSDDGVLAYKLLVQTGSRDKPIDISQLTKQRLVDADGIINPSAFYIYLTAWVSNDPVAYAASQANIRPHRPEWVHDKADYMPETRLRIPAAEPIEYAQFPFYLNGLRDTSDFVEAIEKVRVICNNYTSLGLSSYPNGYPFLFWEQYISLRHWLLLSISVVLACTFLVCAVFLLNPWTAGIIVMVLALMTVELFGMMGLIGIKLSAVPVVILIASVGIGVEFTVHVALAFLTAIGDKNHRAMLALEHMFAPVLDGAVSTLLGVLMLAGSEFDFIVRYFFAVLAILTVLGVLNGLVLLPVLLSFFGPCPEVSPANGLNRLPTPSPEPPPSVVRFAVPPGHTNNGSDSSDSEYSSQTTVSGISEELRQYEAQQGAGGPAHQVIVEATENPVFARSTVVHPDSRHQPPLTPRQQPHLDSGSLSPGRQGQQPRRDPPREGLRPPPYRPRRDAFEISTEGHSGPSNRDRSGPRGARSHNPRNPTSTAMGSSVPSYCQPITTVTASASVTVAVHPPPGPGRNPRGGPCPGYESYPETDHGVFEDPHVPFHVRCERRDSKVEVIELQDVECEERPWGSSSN
Put plainly: co-IP; NIH3T3/Cas9 Ptch1 KO cells transfected with mouse Ptch1, stimulated with Shh for 24 h; IP of Ptch1 and reciprocal IP of endogenous Boc, Western blot. The conditions noted are these: remark: other sources report otherwise.

The target of test [2] is T1, mouse Ptch1 (pcDNA3-mPtch1) (mouse), …. As to the kind of experiment: co-IP; NIH3T3/Cas9 Ptch1 KO cells transfected with mouse Ptch1, unstimulated and 40 min after Shh (partial release at 40 min); IP of Ptch1 and reciprocal IP of endogenous Boc, Western blot. Particulars: remark: other sources report otherwise. For orientation: Immunoblotting shows a protein as a band on a membrane.

Test [3] addresses T2, Boc (bioregional Cdon-binding protein), endogenous (mouse (endogenous in NIH3T3)) (UniProt Q6AZB0).
T2 sequence: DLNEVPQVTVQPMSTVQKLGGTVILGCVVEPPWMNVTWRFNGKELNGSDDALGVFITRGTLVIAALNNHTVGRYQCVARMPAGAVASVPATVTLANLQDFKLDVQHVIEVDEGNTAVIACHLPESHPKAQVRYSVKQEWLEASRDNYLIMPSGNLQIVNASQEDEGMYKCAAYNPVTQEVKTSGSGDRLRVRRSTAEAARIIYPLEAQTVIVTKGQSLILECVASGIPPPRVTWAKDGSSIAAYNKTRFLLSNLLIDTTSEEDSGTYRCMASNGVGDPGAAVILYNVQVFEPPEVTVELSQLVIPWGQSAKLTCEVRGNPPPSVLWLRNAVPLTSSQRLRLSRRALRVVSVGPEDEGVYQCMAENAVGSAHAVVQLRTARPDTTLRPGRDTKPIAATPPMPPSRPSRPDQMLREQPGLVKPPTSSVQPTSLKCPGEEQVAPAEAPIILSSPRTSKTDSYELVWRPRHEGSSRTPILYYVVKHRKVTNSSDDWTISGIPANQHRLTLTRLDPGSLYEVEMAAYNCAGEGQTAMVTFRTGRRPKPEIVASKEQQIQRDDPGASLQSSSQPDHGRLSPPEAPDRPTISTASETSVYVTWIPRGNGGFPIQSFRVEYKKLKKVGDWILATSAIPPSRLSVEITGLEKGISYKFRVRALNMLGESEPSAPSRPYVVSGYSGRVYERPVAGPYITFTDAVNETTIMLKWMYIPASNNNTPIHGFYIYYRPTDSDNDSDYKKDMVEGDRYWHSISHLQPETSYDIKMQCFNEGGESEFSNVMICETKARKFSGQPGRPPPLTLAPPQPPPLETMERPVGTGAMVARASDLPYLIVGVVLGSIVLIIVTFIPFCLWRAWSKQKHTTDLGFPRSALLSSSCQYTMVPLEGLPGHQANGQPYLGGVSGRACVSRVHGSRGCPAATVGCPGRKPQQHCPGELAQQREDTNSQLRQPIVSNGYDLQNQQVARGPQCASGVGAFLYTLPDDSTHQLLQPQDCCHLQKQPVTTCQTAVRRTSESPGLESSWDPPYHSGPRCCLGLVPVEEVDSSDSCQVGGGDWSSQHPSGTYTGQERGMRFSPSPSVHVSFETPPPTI
As to the kind of experiment: co-IP; NIH3T3/Cas9 Ptch1 KO cells transfected with mouse Ptch1, stimulated with Shh for 24 h; IP of Ptch1 and reciprocal IP of endogenous Boc, Western blot.

Test [4] deals with T2, Boc (bioregional Cdon-binding protein), endogenous (mouse (endogenous in NIH3T3)). Put plainly: co-IP; NIH3T3/Cas9 Ptch1 KO cells transfected with mouse Ptch1, unstimulated and 40 min after Shh (partial release at 40 min); IP of Ptch1 and reciprocal IP of endogenous Boc, Western blot.

These are yes or no findings as the source states them, for the method shown. In cells and extracts the contact can be indirect. Some entries that bind do so weakly or less than the wild type.

B1: Gas1 (Growth arrest-specific gene 1), endogenous, Q01721 39-315 (receptor)
chain: LAHGRRLICWQALLQCQGEPDCSYAYSQYAEACAPVLAQRGGADAPGPAGAFPASAASSPRWRCPSHCISALIQLNHTRRGPALEDCDCAQDEHCRSTKRAIEPCLPRTSSVGPGAGAGSVMGCTEARRRCDRDSRCNLALSRYLAYCGKLFNGLRCTDECRAVIEDMLAVPKAALLNDCVCDGLERPICESVKENMARLCFGPDASNGPGSSGSDGGLDDYYDEEYDDEQRAGAAGGEQPLDDDDGLARPGGGAAAAGGRGDLPHGPGRRSSSSGS
B1: the binding result in test [1] and in test [2] was “no binding” each time.

B2: mouse Ptch1 (pcDNA3-mPtch1) (receptor, UniProt Q61115 1-1434)
chain: MASAGNAAGALGRQAGGGRRRRTGGPHRAAPDRDYLHRPSYCDAAFALEQISKGKATGRKAPLWLRAKFQRLLFKLGCYIQKNCGKFLVVGLLIFGAFAVGLKAANLETNVEELWVEVGGRVSRELNYTRQKIGEEAMFNPQLMIQTPKEEGANVLTTEALLQHLDSALQASRVHVYMYNRQWKLEHLCYKSGELITETGYMDQIIEYLYPCLIITPLDCFWEGAKLQSGTAYLLGKPPLRWTNFDPLEFLEELKKINYQVDSWEEMLNKAEVGHGYMDRPCLNPADPDCPATAPNKNSTKPLDVALVLNGGCQGLSRKYMHWQEELIVGGTVKNATGKLVSAHALQTMFQLMTPKQMYEHFRGYDYVSHINWNEDRAAAILEAWQRTYVEVVHQSVAPNSTQKVLPFTTTTLDDILKSFSDVSVIRVASGYLLMLAYACLTMLRWDCSKSQGAVGLAGVLLVALSVAAGLGLCSLIGISFNAATTQVLPFLALGVGVDDVFLLAHAFSETGQNKRIPFEDRTGECLKRTGASVALTSISNVTAFFMAALIPIPALRAFSLQAAVVVVFNFAMVLLIFPAILSMDLYRREDRRLDIFCCFTSPCVSRVIQVEPQAYTEPHSNTRYSPPPPYTSHSFAHETHITMQSTVQLRTEYDPHTHVYYTTAEPRSEISVQPVTVTQDNLSCQSPESTSSTRDLLSQFSDSSLHCLEPPCTKWTLSSFAEKHYAPFLLKPKAKVVVILLFLGLLGVSLYGTTRVRDGLDLTDIVPRETREYDFIAAQFKYFSFYNMYIVTQKADYPNIQHLLYDLHKSFSNVKYVMLEENKQLPQMWLHYFRDWLQGLQDAFDSDWETGRIMPNNYKNGSDDGVLAYKLLVQTGSRDKPIDISQLTKQRLVDADGIINPSAFYIYLTAWVSNDPVAYAASQANIRPHRPEWVHDKADYMPETRLRIPAAEPIEYAQFPFYLNGLRDTSDFVEAIEKVRVICNNYTSLGLSSYPNGYPFLFWEQYISLRHWLLLSISVVLACTFLVCAVFLLNPWTAGIIVMVLALMTVELFGMMGLIGIKLSAVPVVILIASVGIGVEFTVHVALAFLTAIGDKNHRAMLALEHMFAPVLDGAVSTLLGVLMLAGSEFDFIVRYFFAVLAILTVLGVLNGLVLLPVLLSFFGPCPEVSPANGLNRLPTPSPEPPPSVVRFAVPPGHTNNGSDSSDSEYSSQTTVSGISEELRQYEAQQGAGGPAHQVIVEATENPVFARSTVVHPDSRHQPPLTPRQQPHLDSGSLSPGRQGQQPRRDPPREGLRPPPYRPRRDAFEISTEGHSGPSNRDRSGPRGARSHNPRNPTSTAMGSSVPSYCQPITTVTASASVTVAVHPPPGPGRNPRGGPCPGYESYPETDHGVFEDPHVPFHVRCERRDSKVEVIELQDVECEERPWGSSSN
As for B2, the results for the binding result in test [3] and in test [4] were “no binding (condition: after Shh for 24 h)” and “binds”, respectively.

The record behind these values is article PMC7181751.
